Assay results taken from patent US20100255000A1.
Results are given in words; binding and its absence hold for the method and conditions named. Some entries that bind do so weakly or less than the wild type.

Sequences of proteins named here, by UniProt entry; tags and fusion partners are left off. A change or cut given only in a name is not applied to a line headed by its entry.
UniProt P00742: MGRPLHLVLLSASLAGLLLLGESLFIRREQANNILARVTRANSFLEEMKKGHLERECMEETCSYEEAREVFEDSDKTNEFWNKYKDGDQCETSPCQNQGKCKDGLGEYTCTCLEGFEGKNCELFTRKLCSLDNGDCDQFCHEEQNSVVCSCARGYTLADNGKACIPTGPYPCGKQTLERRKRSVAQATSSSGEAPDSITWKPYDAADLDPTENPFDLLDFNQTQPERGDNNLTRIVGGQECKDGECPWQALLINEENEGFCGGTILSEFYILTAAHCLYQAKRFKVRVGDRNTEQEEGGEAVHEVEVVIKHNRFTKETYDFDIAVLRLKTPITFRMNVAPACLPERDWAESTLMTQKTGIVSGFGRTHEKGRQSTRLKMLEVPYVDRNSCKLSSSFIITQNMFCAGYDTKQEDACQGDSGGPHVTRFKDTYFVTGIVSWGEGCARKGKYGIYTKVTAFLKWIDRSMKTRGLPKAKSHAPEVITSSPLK

Biological target: r-Antidote (recombinant antidote; human factor Xa triple mutant after removal of the -RKRRKR- linker, SEQ ID NO. 13) (human) (UniProt P00742)
Experiment: affinity chromatography on immobilised soybean trypsin inhibitor

binding: binds
B1: soybean trypsin inhibitor-agarose (STI-Agarose, Sigma Catalog #T0637) (protein, UniProt P01070 25-205, looked up)
chain: DFVLDNEGNPLENGGTYYILSDITAFGGIRAAPTGNERCPLTVVQSRNELDKGIGTIISSPYRIRFIAEGHPLSLKFDSFAVIMLCVGIPTEWSVVEDLPEGPAVKIGENKDAMDGWFRLERVSDDEFNNYKLVFCPQQAEDDKCGDIGISIDHDDGTRRLVVSKNKPLVVQFQKLDKESL
modifications: coupled to agarose
